Assay results taken from US20050090454A1, “Combination of dehydroepiandrosterone or dehydroepiandrosterone-sulfate with an antihistamine for treatment of asthma or chronic obstructive pulmonary disease” (priority 2003, published 2005).

Experiment: Emitted dose studies with dry powder inhalers

C[C@]12CC[C@H](OS(=O)(=O)[O-])CC1=CC[C@@H]1[C@@H]2CC[C@]2(C)C(=O)CC[C@@H]12.[Na+] [Anhydrous DHEA-S, sodium dehydroepiandrostenone sulfate]
Emitted Dose (%) (Diskhaler (2nd study), 87.8 L/min, three runs and Average): 59.1%
Emitted Dose (%) (Diskhaler, 30 L/min, three runs and average): 58.6%
Emitted Dose (%) (Diskhaler, 87.8 L/min, three runs and Average): 51.3%
Emitted Dose (%) (IDL Multi-Dose (2nd study), 87.8 L/min, three runs and Average): 84.8%
Emitted Dose (%) (IDL Multi-Dose, 30 L/min, three runs and Average): 85.4%
Emitted Dose (%) (IDL Multi-Dose, 87.8 L/min, three runs and Average): 72.6%
Emitted Dose (%) (Rotahaler, 60 L/min, three runs and Average): 57.3%
Emitted Dose (%) (Rotahaler, 87.8 L/min, micronized drug, three runs and Average): 69.7%
